Taken from: PubChem BioAssay AID1259308 (NCATS, 2017)
Here is an unselected part of about 59,000 deposited reagents. Over the whole deposit, about 1,510 (2.6%) were called active. 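Calls use total luciferase alone and ignore viability, so some active siRNAs may act by altering cell number.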 The numbers tell different reagents against one gene apart.

- Test: 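Genes whose loss raises luciferase production in HEK293 cells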 (primary screen)
- Cell system: human HEK293 embryonic kidney cells stably expressing firefly luciferase (HEK-CMV-Luc2-Hygro)
- Reagents: single siRNA against human genes, 0.8 pmol siRNA per well
- Timing: 72 h
- Detection: 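Reporter luminescence and viable-cell signal on separate replicate plates, given as percent of non-targeting control and median/MAD z-scores, plus per-cell luciferase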
- Scale: total luciferase, z-score and total luciferase, % of control: higher = more reporter protein produced; luciferase per cell, z-score: higher = more reporter output per viable cell; viable cells, % of control: higher = more viable cells
- Active means: 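Active when the median/MAD z-score for overall luciferase is greater than 3; a gene was taken forward for validation with new siRNAs if at least two of its three siRNAs passed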
- Calls: active = raised luciferase; inactive = no rise

Gene | reagent | total luciferase, z-score | total luciferase, % of control | luciferase per cell, z-score | viable cells, % of control | call
CD180 | 1 | -0.765 | 66.7 | -0.809 | 92.2 | inactive
CD180 | 2 | -0.383 | 74.3 | -0.497 | 94.6 | inactive
CD180 | 3 | -0.495 | 72 | 0.321 | 74 | inactive
LINC01347 | 1 | 1.48 | 111 | 1.4 | 86.1 | inactive
LINC01347 | 2 | 0.936 | 101 | 0.645 | 94.8 | inactive
LINC01347 | 3 | 1.11 | 104 | 1.62 | 75.7 | inactive
ADGRB1 | 1 | 0.804 | 97.9 | 1.76 | 68.8 | inactive
ADGRB1 | 2 | -0.51 | 71.7 | 0.651 | 67.5 | inactive
ADGRB1 | 3 | -1.32 | 55.6 | -0.309 | 67.3 | inactive
INTS10 | 1 | 0.927 | 100 | 0.665 | 94.1 | inactive
INTS10 | 2 | 0.756 | 96.9 | 0.903 | 85.4 | inactive
INTS10 | 3 | 0.641 | 94.6 | -0.295 | 114 | inactive
RDH14 | 1 | 3.41 | 150 | 2.69 | 82.3 | active
RDH14 | 2 | -0.965 | 62.7 | -0.921 | 89.3 | inactive
RDH14 | 3 | -0.412 | 73.7 | -0.221 | 87.3 | inactive
DAB2 | 1 | -0.522 | 71.5 | -1.1 | 107 | inactive
DAB2 | 2 | 1.88 | 119 | 1.69 | 85.5 | inactive
DAB2 | 3 | -0.869 | 64.6 | -1.58 | 110 | inactive
ATRNL1 | 1 | -0.951 | 63 | -1.34 | 100 | inactive
ATRNL1 | 2 | 1.53 | 112 | 2.06 | 73 | inactive
ATRNL1 | 3 | 1.53 | 112 | 2.02 | 73.8 | inactive
KMT5C | 1 | -0.193 | 78 | -0.148 | 90.7 | inactive
KMT5C | 2 | 0.21 | 86.1 | -0.21 | 102 | inactive
KMT5C | 3 | -0.868 | 64.6 | -0.703 | 86.9 | inactive

Just “total luciferase, % of control”, for 3 of the entries above:
ADGRB1 #2 = 71.7
ADGRB1 #3 = 55.6
INTS10 #1 = 100
